Measured values published in the supplement of paper PMC10849652.
This is one part of the list.

Protein sequences, listed by entry. Tags and fused reporters are not part of them. Lines headed by an entry give the natural chain unless they say otherwise; changes in a name come on top.
UniProt Q15599: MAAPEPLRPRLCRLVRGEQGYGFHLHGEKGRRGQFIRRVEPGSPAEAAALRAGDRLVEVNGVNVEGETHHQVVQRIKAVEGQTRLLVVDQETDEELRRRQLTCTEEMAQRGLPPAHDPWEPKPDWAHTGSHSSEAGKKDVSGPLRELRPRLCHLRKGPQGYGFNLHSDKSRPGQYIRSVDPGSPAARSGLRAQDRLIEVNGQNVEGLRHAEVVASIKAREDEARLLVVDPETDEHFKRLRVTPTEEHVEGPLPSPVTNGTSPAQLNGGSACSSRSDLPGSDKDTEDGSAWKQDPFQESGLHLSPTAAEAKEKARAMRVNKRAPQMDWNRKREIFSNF
UniProt A6NHR9: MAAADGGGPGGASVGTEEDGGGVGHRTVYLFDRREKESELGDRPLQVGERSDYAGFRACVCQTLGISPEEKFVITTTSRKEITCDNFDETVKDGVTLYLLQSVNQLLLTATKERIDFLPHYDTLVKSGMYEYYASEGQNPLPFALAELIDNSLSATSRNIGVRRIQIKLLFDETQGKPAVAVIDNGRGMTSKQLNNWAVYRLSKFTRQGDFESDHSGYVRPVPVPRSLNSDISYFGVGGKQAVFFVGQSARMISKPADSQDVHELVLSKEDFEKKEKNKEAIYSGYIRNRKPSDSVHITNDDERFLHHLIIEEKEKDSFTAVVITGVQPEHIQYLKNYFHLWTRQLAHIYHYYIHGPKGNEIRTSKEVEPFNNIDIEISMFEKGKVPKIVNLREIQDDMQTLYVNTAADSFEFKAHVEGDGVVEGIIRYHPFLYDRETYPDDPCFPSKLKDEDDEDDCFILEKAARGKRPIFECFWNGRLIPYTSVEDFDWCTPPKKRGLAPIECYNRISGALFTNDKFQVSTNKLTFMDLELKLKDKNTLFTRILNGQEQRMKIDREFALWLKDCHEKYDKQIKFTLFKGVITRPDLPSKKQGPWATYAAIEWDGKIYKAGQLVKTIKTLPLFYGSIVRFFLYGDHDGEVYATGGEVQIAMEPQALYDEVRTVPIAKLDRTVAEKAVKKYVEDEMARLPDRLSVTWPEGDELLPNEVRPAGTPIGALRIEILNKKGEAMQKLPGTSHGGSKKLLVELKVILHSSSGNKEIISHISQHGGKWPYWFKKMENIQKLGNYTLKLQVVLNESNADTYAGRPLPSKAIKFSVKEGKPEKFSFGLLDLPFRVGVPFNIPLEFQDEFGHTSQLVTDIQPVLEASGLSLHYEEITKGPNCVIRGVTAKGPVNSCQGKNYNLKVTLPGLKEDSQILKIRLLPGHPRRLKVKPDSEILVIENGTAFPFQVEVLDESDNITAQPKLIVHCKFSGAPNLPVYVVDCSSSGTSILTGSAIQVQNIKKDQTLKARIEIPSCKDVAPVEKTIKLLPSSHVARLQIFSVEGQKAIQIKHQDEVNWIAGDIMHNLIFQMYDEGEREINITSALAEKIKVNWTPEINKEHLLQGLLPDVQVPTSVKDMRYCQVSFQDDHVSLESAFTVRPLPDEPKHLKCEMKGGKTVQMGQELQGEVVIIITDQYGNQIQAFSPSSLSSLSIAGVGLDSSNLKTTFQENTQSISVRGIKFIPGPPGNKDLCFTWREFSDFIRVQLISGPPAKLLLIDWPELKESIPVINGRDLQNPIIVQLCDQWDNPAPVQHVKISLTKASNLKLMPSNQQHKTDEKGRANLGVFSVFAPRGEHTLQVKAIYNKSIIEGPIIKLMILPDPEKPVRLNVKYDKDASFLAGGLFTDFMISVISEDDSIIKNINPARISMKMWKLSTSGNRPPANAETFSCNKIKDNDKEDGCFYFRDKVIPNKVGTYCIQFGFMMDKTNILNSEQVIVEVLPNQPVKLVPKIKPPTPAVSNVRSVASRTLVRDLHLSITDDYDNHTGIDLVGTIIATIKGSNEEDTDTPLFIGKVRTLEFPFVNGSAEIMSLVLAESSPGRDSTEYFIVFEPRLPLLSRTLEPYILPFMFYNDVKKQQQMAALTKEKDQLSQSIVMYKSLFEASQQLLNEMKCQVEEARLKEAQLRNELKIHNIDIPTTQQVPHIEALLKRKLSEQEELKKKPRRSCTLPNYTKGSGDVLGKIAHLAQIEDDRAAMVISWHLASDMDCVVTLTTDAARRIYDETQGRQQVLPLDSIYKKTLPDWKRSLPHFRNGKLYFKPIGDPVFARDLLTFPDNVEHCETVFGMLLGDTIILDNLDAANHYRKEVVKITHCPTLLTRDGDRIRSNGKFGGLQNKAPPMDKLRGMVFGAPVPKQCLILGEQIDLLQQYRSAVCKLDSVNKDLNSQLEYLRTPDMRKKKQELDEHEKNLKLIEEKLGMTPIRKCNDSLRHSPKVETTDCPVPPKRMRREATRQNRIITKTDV
UniProt Q9UPR3: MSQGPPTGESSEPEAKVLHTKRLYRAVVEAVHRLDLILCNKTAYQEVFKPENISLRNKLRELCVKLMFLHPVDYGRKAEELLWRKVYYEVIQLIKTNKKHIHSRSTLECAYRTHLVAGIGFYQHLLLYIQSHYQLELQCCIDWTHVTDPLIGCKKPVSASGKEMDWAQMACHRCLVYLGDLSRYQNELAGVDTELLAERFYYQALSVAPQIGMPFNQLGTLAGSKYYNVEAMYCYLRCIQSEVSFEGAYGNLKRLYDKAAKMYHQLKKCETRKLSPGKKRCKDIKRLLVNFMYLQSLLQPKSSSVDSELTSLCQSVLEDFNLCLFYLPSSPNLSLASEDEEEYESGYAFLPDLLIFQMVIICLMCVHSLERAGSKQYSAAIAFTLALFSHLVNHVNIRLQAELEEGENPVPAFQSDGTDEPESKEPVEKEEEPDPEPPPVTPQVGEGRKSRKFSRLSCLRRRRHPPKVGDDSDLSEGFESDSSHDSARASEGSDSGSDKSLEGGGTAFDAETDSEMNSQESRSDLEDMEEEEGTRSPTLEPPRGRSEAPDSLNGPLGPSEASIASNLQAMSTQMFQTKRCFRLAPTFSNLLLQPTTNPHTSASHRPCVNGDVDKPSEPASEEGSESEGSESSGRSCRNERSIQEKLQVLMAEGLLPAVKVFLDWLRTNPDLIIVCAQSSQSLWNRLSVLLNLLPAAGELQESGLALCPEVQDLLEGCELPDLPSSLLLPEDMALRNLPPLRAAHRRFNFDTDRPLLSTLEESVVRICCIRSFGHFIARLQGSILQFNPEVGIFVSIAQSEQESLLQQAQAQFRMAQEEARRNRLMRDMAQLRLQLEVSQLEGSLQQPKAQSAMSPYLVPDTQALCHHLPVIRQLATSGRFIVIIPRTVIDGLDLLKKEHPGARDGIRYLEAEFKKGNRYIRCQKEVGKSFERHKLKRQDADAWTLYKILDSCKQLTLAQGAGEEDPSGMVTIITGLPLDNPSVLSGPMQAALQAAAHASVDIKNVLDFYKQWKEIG
UniProt Q9BX66: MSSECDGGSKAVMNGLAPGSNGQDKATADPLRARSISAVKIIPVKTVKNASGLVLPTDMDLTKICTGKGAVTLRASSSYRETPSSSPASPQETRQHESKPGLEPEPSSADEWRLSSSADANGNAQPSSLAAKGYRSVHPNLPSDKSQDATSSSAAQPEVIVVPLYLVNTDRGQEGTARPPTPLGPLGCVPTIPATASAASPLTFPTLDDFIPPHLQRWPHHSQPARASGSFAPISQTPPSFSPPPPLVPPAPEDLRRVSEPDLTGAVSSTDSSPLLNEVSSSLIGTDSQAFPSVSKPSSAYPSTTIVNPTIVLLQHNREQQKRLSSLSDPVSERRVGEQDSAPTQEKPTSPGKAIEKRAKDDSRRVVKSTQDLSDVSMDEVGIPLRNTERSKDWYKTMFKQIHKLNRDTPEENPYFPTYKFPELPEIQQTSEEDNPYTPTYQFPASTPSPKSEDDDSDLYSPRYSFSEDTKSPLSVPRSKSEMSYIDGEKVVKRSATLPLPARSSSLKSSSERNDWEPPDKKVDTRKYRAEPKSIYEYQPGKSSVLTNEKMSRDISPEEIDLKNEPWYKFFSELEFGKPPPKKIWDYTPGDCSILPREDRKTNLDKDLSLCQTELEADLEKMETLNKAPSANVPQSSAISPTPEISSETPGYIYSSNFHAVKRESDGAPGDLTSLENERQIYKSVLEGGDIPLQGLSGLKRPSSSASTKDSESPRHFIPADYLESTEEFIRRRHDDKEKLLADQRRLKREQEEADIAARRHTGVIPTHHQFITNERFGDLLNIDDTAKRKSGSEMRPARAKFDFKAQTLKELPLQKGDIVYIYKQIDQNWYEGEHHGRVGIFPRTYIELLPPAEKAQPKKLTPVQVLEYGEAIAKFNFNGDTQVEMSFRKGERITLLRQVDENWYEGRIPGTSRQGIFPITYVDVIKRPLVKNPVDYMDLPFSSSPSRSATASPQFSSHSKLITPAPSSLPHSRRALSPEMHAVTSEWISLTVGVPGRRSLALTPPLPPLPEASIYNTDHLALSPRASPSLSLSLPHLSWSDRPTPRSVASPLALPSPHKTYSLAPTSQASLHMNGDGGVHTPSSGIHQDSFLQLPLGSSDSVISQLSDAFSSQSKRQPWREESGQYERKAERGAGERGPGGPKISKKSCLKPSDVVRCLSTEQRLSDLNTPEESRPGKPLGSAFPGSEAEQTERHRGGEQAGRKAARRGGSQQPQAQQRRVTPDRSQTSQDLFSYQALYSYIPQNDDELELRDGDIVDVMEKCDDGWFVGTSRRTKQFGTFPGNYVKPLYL
UniProt O60749: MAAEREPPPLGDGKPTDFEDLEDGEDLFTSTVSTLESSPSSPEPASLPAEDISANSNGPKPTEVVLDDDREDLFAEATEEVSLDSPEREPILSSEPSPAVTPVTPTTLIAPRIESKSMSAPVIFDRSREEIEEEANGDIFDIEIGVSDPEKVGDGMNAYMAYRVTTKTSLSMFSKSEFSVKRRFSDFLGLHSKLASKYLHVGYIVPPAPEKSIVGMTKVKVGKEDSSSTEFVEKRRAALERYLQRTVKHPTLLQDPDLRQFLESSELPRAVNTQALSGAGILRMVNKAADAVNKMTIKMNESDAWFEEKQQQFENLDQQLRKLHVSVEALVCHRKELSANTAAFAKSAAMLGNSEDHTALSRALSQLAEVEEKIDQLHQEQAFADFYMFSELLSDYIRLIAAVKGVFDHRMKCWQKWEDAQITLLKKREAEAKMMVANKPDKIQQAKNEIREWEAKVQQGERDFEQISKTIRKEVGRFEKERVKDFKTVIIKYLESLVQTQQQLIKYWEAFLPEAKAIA
UniProt P04179: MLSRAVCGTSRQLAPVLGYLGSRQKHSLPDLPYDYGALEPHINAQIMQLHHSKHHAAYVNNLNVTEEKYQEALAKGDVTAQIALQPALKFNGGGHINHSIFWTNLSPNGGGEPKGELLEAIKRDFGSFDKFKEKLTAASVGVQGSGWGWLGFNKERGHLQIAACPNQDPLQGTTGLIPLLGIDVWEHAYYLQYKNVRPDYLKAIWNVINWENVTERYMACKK
UniProt Q7KZF4: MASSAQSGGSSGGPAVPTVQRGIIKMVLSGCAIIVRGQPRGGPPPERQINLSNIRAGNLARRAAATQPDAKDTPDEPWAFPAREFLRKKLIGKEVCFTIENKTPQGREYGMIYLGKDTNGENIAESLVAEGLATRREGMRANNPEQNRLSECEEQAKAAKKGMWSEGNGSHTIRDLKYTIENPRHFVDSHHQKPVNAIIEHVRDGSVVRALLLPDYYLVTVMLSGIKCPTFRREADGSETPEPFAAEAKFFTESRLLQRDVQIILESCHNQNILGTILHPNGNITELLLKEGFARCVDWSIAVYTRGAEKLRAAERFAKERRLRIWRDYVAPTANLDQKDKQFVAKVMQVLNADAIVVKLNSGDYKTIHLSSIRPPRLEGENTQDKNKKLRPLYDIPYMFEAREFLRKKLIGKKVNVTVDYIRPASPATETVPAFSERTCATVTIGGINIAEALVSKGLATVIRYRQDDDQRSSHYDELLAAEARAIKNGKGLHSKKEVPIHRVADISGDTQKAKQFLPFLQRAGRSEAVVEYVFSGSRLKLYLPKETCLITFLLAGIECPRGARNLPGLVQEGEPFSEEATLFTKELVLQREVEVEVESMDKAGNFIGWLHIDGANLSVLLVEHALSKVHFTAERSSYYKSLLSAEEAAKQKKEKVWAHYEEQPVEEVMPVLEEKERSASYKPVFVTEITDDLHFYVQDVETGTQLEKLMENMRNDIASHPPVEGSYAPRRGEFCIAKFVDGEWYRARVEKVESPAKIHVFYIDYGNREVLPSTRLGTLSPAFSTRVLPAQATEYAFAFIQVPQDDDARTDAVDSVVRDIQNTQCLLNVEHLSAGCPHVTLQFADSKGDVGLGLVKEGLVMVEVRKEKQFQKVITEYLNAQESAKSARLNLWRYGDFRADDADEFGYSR
UniProt O00193: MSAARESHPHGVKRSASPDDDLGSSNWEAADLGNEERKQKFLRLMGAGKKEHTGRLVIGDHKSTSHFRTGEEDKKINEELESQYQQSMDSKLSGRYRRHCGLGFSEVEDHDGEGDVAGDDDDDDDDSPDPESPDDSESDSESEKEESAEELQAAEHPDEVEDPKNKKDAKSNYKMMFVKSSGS

Assays:
Assay in all cases: log2 fold change, soluble protein after heating vs DMSO (PISA); higher = thermal stabilisation; K562 cells, 10 uM, 30 min; active = over 0.2 and 3.5 SD of the protein, either way, in both replicates (recomputed)
[1] = compound: CC1=C(C=C(C=C1)NC(=O)C2=CC(=CC=C2)C(C)(C)C#N)NC3=CC4=C(C=C3)N=CN(C4=O)C
Summary of the method: (§1)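 K562 cells at 2×10^6 cells/mL were treated for 30 min with 10 μM compound, and aliquots were heated for 3 min over 48°C-58°C before pooling. Extraction used PBS with 0.5% NP-40 at 4°C, and soluble protein was the supernatant after 21,000xg for 90 min, measured by TMTpro 16plex LC-MS/MS with channel sums equalised. Thermal stability values, relative to control samples and from duplicates, are log2 fold changes.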

[2] = compound: CC1=C(C=C(C=C1)NC(=O)C2=CC(=CC=C2)N(C)C)NC(=O)C3=CC=C(C=C3)O
Summary of the method: as §1

[3] = compound: CC1=CC=C(C=C1)SC2=C3C=C(SC3=CN=C2)C(=O)N
Summary of the method: as §1

[4] = compound: CC1=NC(=CC=C1)C2=C(N=C(N2)C(C)(C)C)C3=CC4=NC=CN=C4C=C3
Summary of the method: as §1

Nexturastat A = compound: CCCCN(Cc1ccc(C(=O)NO)cc1)C(=O)Nc1ccccc1 [Nexturastat A]
Summary of the method: as §1

vemurafenib = compound: CCCS(=O)(=O)Nc1ccc(F)c(C(=O)c2c[nH]c3ncc(-c4ccc(Cl)cc4)cc23)c1F [vemurafenib]
Summary of the method: as §1

[5] = compound: CCCS(=O)(=O)Nc1ccc(F)c(C(=O)c2c[nH]c3ncc(Cl)cc23)c1F
Summary of the method: as §1

[6] = compound: CCCc1cc(C)[nH]c(=O)c1CNC(=O)c1cc(-c2ccnc(N3CCN(C)CC3)c2)cc2c1cnn2C(C)C
Summary of the method: as §1

givinostat = compound: CCN(CC)Cc1ccc2cc(COC(=O)Nc3ccc(C(=O)NO)cc3)ccc2c1 [givinostat]
Summary of the method: as §1

barasertib = compound: CCN(CCCOc1ccc2c(Nc3cc(CC(=O)Nc4cccc(F)c4)[nH]n3)ncnc2c1)CCOP(=O)(O)O [barasertib]
Summary of the method: as §1

Measured: log2 fold change

SLC9A3R2 (UniProt Q15599)
inactive: [1] -0.018 | [2] 0.016 | [3] 0 | [4] -0.016 | Nexturastat A -0.015 | vemurafenib -0.047 | [5] 0.052 | [6] -0.042 | givinostat -0.016 | barasertib -0.022

SMAP1 isoform 2 (UniProt Q8IYB5)
inactive: [1] 0.075 | [2] -0.009 | [3] 0.095 | [4] 0.12 | Nexturastat A -0.008 | vemurafenib 0.079 | [5] 0.043 | [6] 0.042 | givinostat -0.06 | barasertib 0.073

SMARCC1 (UniProt Q92922)
inactive: [1] -0.098 | [2] -0.06 | [3] -0.038 | [4] -0.014 | Nexturastat A 0.112 | vemurafenib 0.028 | [5] 0.051 | [6] 0.007 | givinostat 0.299 | barasertib 0.081

SNCA (UniProt P37840)
inactive: [1] -0.031 | [2] 0.05 | [3] 0.037 | [4] -0.027 | Nexturastat A -0.046 | vemurafenib -0.026 | [5] -0.042 | [6] -0.019 | givinostat 0.025 | barasertib -0.013

SMCHD1 (UniProt A6NHR9)
inactive: [1] -0.067 | [2] 0 | [3] 0.089 | [4] -0.039 | Nexturastat A 0.126 | vemurafenib 0.057 | [5] 0.141 | [6] 0.155 | givinostat 0.101 | barasertib -0.168

SLC7A6OS (UniProt Q96CW6)
inactive: [1] -0.065 | [2] -0.033 | [3] -0.042 | [4] -0.075 | Nexturastat A -0.031 | vemurafenib -0.015 | [5] 0.013 | [6] -0.025 | givinostat 0.017 | barasertib 0.01

SNX14 (UniProt Q9Y5W7)
inactive: [1] -0.012 | [2] -0.073 | [3] -0.016 | [4] -0.224 | Nexturastat A 0.048 | vemurafenib 0.019 | [5] 0.023 | [6] 0.055 | givinostat -0.035 | barasertib 0.235

SMC5 (UniProt Q8IY18)
inactive: [1] -0.038 | [2] -0.067 | [3] -0.017 | [4] -0.032 | Nexturastat A -0.014 | vemurafenib 0.043 | [5] -0.033 | [6] -0.02 | givinostat -0.033 | barasertib -0.048

SMG5 (UniProt Q9UPR3)
inactive: [1] -0.12 | [2] 0.014 | [3] 0.141 | [4] 0.024 | Nexturastat A 0.185 | vemurafenib 0.061 | [5] 0.031 | [6] -0.271 | givinostat 0 | barasertib 0.018

SORBS1 isoform 12 (UniProt Q9BX66)
inactive: [1] 0.014 | [2] -0.003 | [3] -0.019 | [4] 0.033 | Nexturastat A -0.049 | vemurafenib -0.003 | [5] 0.011 | [6] -0.088 | givinostat -0.072 | barasertib 0.033

SNRNP70 (UniProt P08621)
inactive: [1] -0.034 | [2] 0.01 | [3] -0.125 | [4] -0.054 | Nexturastat A 0.226 | vemurafenib -0.047 | [5] -0.097 | [6] 0.04 | givinostat 0.043 | barasertib -0.184

SLMAP (UniProt Q14BN4)
inactive: [1] -0.088 | [2] -0.026 | [3] -0.076 | [4] -0.039 | Nexturastat A 0.123 | vemurafenib -0.014 | [5] -0.018 | [6] 0.025 | givinostat 0.084 | barasertib 0.055

SNX9 (UniProt Q9Y5X1)
inactive: [1] 0.018 | [2] -0.031 | [3] -0.002 | [4] 0.03 | Nexturastat A 0.048 | vemurafenib 0.006 | [5] 0.041 | [6] -0.027 | givinostat -0.099 | barasertib 0.007

SMAD2 (UniProt Q15796)
inactive: [1] 0.036 | [2] -0.034 | [3] 0.01 | [4] 0.052 | Nexturastat A -0.382 | vemurafenib -0.016 | [5] 0.04 | [6] -0.027 | givinostat 0.047 | barasertib 0.047

SNCG (UniProt O76070)
inactive: [1] 0.007 | [2] 0.042 | [3] 0.061 | [4] -0.007 | Nexturastat A -0.052 | vemurafenib -0.028 | [5] 0.037 | [6] -0.001 | givinostat -0.006 | barasertib -0.032

SPA17 (UniProt Q15506)
inactive: [1] -0.114 | [2] 0.059 | [3] -0.07 | [4] -0.064 | Nexturastat A -0.044 | vemurafenib -0.049 | [5] 0.014 | [6] -0.029 | givinostat -0.03 | barasertib -0.051

SLC9A6 isoform 2 (UniProt Q92581)
inactive: [1] -0.035 | [2] 0.024 | [3] -0.002 | [4] -0.012 | Nexturastat A -0.061 | vemurafenib 0.024 | [5] 0 | [6] -0.063 | givinostat -0.01 | barasertib 0.018

SNAPIN (UniProt O95295)
inactive: [1] -0.05 | [2] 0 | [3] -0.023 | [4] 0.001 | Nexturastat A -0.101 | vemurafenib 0.078 | [5] -0.034 | [6] -0.019 | givinostat -0.047 | barasertib 0.028

SNX2 (UniProt O60749)
inactive: [1] 0.009 | [2] -0.022 | [3] 0.02 | [4] 0.012 | Nexturastat A 0.021 | vemurafenib 0.013 | [5] 0.052 | [6] -0.036 | givinostat 0.073 | barasertib 0.037

SOCS2 (UniProt O14508)
inactive: [1] 0.023 | [2] -0.052 | [3] -0.013 | [4] 0.124 | Nexturastat A -0.021 | vemurafenib 0.051 | [5] 0.008 | [6] -0.087 | givinostat -0.053 | barasertib 0.045

SOD2 (UniProt P04179)
inactive: [1] -0.043 | [2] 0.034 | [3] -0.018 | [4] 0.002 | Nexturastat A 0.005 | vemurafenib 0.047 | [5] -0.01 | [6] -0.016 | givinostat -0.036 | barasertib -0.013

SNRPD2 (UniProt P62316)
inactive: [1] -0.007 | [2] 0.016 | [3] -0.066 | [4] -0.016 | Nexturastat A 0.022 | vemurafenib -0.026 | [5] -0.075 | [6] -0.032 | givinostat -0.029 | barasertib -0.03

SND1 (UniProt Q7KZF4)
inactive: [1] 0.055 | [2] 0.129 | [3] -0.025 | [4] -0.181 | Nexturastat A 0.625 | vemurafenib -0.024 | [5] -0.003 | [6] 0.22 | givinostat 0.202 | barasertib -0.032

SP100 isoform 4 (UniProt P23497)
inactive: [1] 0.02 | [2] -0.004 | [3] 0.072 | [4] -0.008 | Nexturastat A -0.119 | vemurafenib -0.019 | [5] 0.159 | [6] 0 | givinostat -0.005 | barasertib 0.003

SNAP23 (UniProt O00161)
inactive: [1] -0.007 | [2] 0.017 | [3] -0.012 | [4] 0.017 | Nexturastat A -0.061 | vemurafenib 0.025 | [5] -0.023 | [6] -0.039 | givinostat -0.045 | barasertib 0.003

SNX12 isoform 1 (UniProt Q9UMY4)
inactive: [1] -0.021 | [2] -0.006 | [3] 0.032 | [4] 0.024 | Nexturastat A -0.082 | vemurafenib 0.054 | [5] 0.059 | [6] 0.008 | givinostat 0.004 | barasertib 0.062

SMG1 (UniProt Q96Q15)
inactive: [1] -0.068 | [2] -0.048 | [3] 0.031 | [4] 0.012 | Nexturastat A 0.045 | vemurafenib 0.029 | [5] 0.077 | [6] -0.096 | givinostat 0.05 | barasertib 0.075

SMAP (UniProt O00193)
inactive: [1] -0.018 | [2] -0.002 | [3] -0.03 | [4] 0.062 | Nexturastat A -0.059 | vemurafenib -0.006 | [5] 0.001 | [6] -0.107 | givinostat -0.02 | barasertib 0.008

SMAP2 (UniProt Q8WU79)
inactive: [1] -0.033 | [2] -0.063 | [3] 0.016 | [4] -0.054 | Nexturastat A 0.029 | vemurafenib 0.058 | [5] 0.055 | [6] 0.043 | givinostat 0.04 | barasertib 0.052

Two entries picked at random from the list so far:
SMCHD1 (UniProt A6NHR9)
inactive: [1] -0.067 | [2] 0 | [3] 0.089 | [4] -0.039 | Nexturastat A 0.126 | vemurafenib 0.057 | [5] 0.141 | [6] 0.155 | givinostat 0.101 | barasertib -0.168

SLMAP (UniProt Q14BN4)
inactive: [1] -0.088 | [2] -0.026 | [3] -0.076 | [4] -0.039 | Nexturastat A 0.123 | vemurafenib -0.014 | [5] -0.018 | [6] 0.025 | givinostat 0.084 | barasertib 0.055
